Measured values taken from article PMC7938805, “Biophysical and biochemical properties of Deup1 self-assemblies: a potential driver for deuterosome formation during multiciliogenesis” (Biology Open, 2021).
These are yes or no findings as the source states them, for the method shown.

Target: mScarlet I-Deup1 C-terminus fragment (467-601 a.a.) (mouse) (UniProt Q7M6Y5)
Assay: fluorescence microscopy of assemblies of purified protein; purified fluorescent protein (100 nM where stated) in 50 mM Tris pH 7.5, 150 mM NaCl, 1.5% glycerol with PEG8000 (up to 6%) or BSA 300 mg/ml as crowding agent, RT 10 min, confocal imaging; both purified

binding: no binding
B1: mScarlet I-Deup1 C-terminus fragment (467-601 a.a.) (domain or fragment, UniProt Q7M6Y5-1 467-601)
chain: SDLAKLHGNGKAAWPNQSSYGEAGAYVFQSQLKTETSGDRISQDCELNRSPTPLSPLPFQTKEMASPLVGDNEVLALSPPDISFRASLAAQHFLMEEERRAKELEKLLNTHIDELQRHTEFTLNKYTKLKQSRHI
